This is an account of results in PubChem BioAssay AID493014 (National Center for Advancing Translational Sciences (NCATS), 2011).

A short description of the test: qHTS Assay to Find Inhibitors of Chronic Active B-Cell Receptor Signaling. The note with it: ABC-DLBCL IkBa-CBG/CBR reporter, luminescence ratio (green luciferase fused to IkBa over red control in TMD8 lymphoma cells), 4 h. In a few lines: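 Doxycycline induced both beetle luciferases in TMD8 lymphoma cells; IKK-driven degradation limits the IkappaBalpha-fused green signal, while red luminescence normalises for cell number and nonspecific effects. Compounds tested up to 46 uM, 4 hrs.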

Where [1] appears, read: measured here: CBR red luminescence, cell number.
[2] abbreviates: measured here: IkBa-CBG green luminescence.

This is one part of the list. Shown are side measurements of this screen, not its main read-out; they come without a call. The list favours compounds with an active or inconclusive main result. Words in brackets tell the shape of the fitted curve; partial curves, single points and poor fits give uncertain potencies.

For the compound `CCCn1nnc(NC(=O)/C=C/c2ccccc2)n1`, the AC50 under setting [1] is 35.5 µM [falling, single point].

On to `CCOC(=O)c1sc(Nc2ccc(Br)cc2)nc1C`, for which, under setting [1], the AC50 is 0.562 µM [rising, full curve].

Take `CC(C)(C)c1ccc(C(=O)C2CCCN(C(=O)c3ccccn3)C2)cc1` (stereo not drawn): the AC50 under setting [1] was 3.16 µM [rising, full curve].

On to `Cc1ccc(OCCNC(=O)/C=C/c2ccccc2)cc1`, for which the AC50 under setting [1] was 23.1 µM [rising, partial curve, poor fit].

Regarding `CN(C)C(=O)COc1ccc(C(=O)/C=C/c2cccnc2)cc1`, the AC50 under setting [1] is 11.2 µM [falling, partial curve] and the AC50 under setting [2] is 11.2 µM [rising, partial curve, poor fit].

Turning to `Cc1cc(C(=O)COc2ccc([N+](=O)[O-])cc2)c(C)n1C1CC1`, under setting [1], the AC50 is 1.26 µM [rising, full curve, poor fit].

Take `Cc1ccccc1NC(=O)C(=O)NCCCN1CCCC1=O`: the AC50 under setting [1] was 4.61 µM [falling, full curve, poor fit].

With `C=C(C(=O)Oc1ccccc1C(C)(C)C)c1ccccc1`, the AC50 under setting [1] is 25.9 µM [falling, single point].

On to `CC(NC(=O)CSc1nnc(COc2ccccc2)o1)c1ccccc1` (stereo not drawn), for which, under setting [1], the half-maximal activity concentration (AC50) was 35.5 µM [rising, single point].

Take `OCCCNc1ncnc2c1cnn2-c1ccc(Cl)cc1`: the AC50 under setting [1] is 11.2 µM [falling, single point].

As to `COC(=O)c1ccc(C(=O)OC)c(NC(=O)CSCC(=O)O)c1`, under setting [1], the AC50 is 0.891 µM [falling, full curve, poor fit].

With `COc1ccc(/C(C)=C2/SC(=S)N(CCC(=O)O)C2=O)cc1`, under setting [1], the AC50 was 2.91 µM [falling, full curve].

Regarding `CC1(C)CC(=O)C(C2=NC(C)(C)Cc3ccccc32)=C(O)C1`, under setting [1], the AC50 is 31.6 µM [rising, single point].

`CN1Cc2cc(C(=O)c3ccccc3O)cnc2NC1=O`: the AC50 under setting [1] is 11.2 µM [falling, partial curve, poor fit].

Consider `CCOC(=O)c1c(NC(=O)/C=C/C(=O)O)sc(C)c1-c1ccc(C)c(C)c1`, for which the AC50 under setting [1] is 10 µM [falling, partial curve, poor fit].

On to `Cc1cc(/C=C(\C#N)C(=O)NCc2ccco2)c(C)n1C1CCCC1`, for which the AC50 under setting [1] is 5.17 µM [rising, single point].

As for `Clc1cccc(-c2nc(NCc3cccnc3)c3ccccc3n2)c1`, the AC50 under setting [1] is 35.5 µM [falling, single point].

With `C/C=C/Cn1c(SCCCc2ccccc2)nc2c1c(=O)[nH]c(=O)n2C`, the AC50 under setting [2] was 18.4 µM [rising, partial curve, poor fit].

Regarding `C[C@H](CO)N1C[C@H](C)[C@@H](CN(C)Cc2ccc(Cl)c(Cl)c2)Oc2c(NC(=O)C3CC3)cccc2C1=O`, the AC50 under setting [1] is 16.4 µM [falling, single point].

In the case of `NS(=O)(=O)c1cccc(NC(=O)CCSc2ccccc2Cl)c1`, the AC50 under setting [1] was 13 µM [falling, partial curve].

Turning to `Cc1ccc(C(=O)N(C)CC(=O)Nc2ccc(N3CCOCC3)cc2)s1`, the half-maximal activity concentration (AC50) under setting [1] is 4.61 µM [falling, partial curve].

For the compound `O=C(Cn1c(NCCO)nc2ccccc21)N1CCN(Cc2ccccc2)CC1`, the AC50 under setting [1] is 3.16 µM [rising, partial curve, poor fit].

As to `Cc1ccc(NC2=Nc3ccccc3CS2)cc1`, under setting [1], the AC50 was 1.41 µM [rising, partial curve, poor fit].

`Cc1ccc(S(=O)(=O)CCC(=O)Nc2nnc(CC(C)C)s2)cc1`: under setting [1], the AC50 was 9.2 µM [falling, partial curve, poor fit].

On to `CCOC(=O)C(NCCOC)(NC(C)=O)C(F)(F)F` (stereo not drawn), for which the AC50 under setting [1] is 15.8 µM [rising, partial curve, poor fit].

With `Cc1c(Cl)c(-c2n[nH]c(=S)n2-c2ccc(F)cc2)nn1C`, under setting [1], the AC50 was 1.58 µM [rising, partial curve, poor fit].

`CCNc1nc(NCC)nc(N/N=C/c2ccc(Br)cc2)n1`: the AC50 under setting [1] is 1.12 µM [rising, full curve].

Turning to `O=C(CCNc1ccc(Cc2ccncc2)cc1)c1cccc([N+](=O)[O-])c1`, under setting [1], the AC50 is 28.2 µM [falling, single point].

On to `O=C(CCNC(=O)c1ccco1)Nc1ccc(F)c(Cl)c1`, for which, under setting [1], the AC50 is 35.5 µM [rising, single point].

Turning to `O=C(Nc1ccc(SC(F)F)cc1)C12CCC(CC1)C2`, the AC50 under setting [1] is 0.651 µM [rising, partial curve, poor fit].

In the case of `COc1ccc(C(CCN2CCCCC2)c2c(O)cc(OC)cc2OC)cc1` (stereo not drawn), the AC50 under setting [1] was 35.5 µM [rising, single point].

For `N#Cc1ccc(C(=O)Nc2nnc(-c3cccs3)o2)cc1`, under setting [1], the AC50 is 2.24 µM [falling, full curve, poor fit].

Consider `Cc1nc(-c2cccnc2)sc1C(=O)Nc1cccc(C(F)(F)F)c1`, for which, under setting [1], the AC50 was 35.5 µM [falling, single point].

Turning to `Cc1cc(C)c2c(N)c(C(=O)Nc3ncc(C)s3)sc2n1`, under setting [1], the AC50 is 11.6 µM [falling, partial curve, poor fit].

With `COc1ccc([N+](=O)[O-])cc1CSc1nnc(NC(C)=O)s1`, the AC50 under setting [1] was 7.94 µM [rising, partial curve, poor fit].

In the case of `CCOC(=O)CN1C(=O)S/C(=C/c2ccc(C)o2)C1=O`, the AC50 under setting [1] was 0.631 µM [rising, full curve, poor fit].

In the case of `O=C(CN1c2ccccc2Sc2ccccc21)NNC(=O)Nc1ccc(Cl)c(Cl)c1`, the AC50 under setting [1] is 5.01 µM [falling, partial curve].

In the case of `Cn1c(=O)c2c(nc(Br)n2C)n(C)c1=O`, the AC50 under setting [1] is 23.1 µM [falling, single point].

In the case of `COc1ccc(S(=O)(=O)Nc2c(NC3CCCCC3)c3ccccc3oc2=O)cc1Cl`, the AC50 under setting [1] was 8.91 µM [falling, partial curve].

With `C=CCn1c(=O)n(CCOC)c(=O)c2sc3ccccc3c21`, the AC50 under setting [1] is 0.0651 µM [rising, full curve, poor fit].

Take `COc1ccc(NC(=O)CCC(=O)Nc2nnc(C(F)(F)F)s2)c(OC)c1`: the AC50 under setting [1] was 29.1 µM [rising, single point].

Take `CCOC(=O)c1cc(C)sc1NC(=O)c1ccc(Cl)s1`: under setting [1], the AC50 was 0.92 µM [rising, partial curve, poor fit].
